This assay has as its target T1, IRE1-TEV-HA (murine IRE1α with a C-terminal TEV protease cleavage site and an HA epitope tag) (murine) (UniProt Q9Z2E3).
T1 sequence: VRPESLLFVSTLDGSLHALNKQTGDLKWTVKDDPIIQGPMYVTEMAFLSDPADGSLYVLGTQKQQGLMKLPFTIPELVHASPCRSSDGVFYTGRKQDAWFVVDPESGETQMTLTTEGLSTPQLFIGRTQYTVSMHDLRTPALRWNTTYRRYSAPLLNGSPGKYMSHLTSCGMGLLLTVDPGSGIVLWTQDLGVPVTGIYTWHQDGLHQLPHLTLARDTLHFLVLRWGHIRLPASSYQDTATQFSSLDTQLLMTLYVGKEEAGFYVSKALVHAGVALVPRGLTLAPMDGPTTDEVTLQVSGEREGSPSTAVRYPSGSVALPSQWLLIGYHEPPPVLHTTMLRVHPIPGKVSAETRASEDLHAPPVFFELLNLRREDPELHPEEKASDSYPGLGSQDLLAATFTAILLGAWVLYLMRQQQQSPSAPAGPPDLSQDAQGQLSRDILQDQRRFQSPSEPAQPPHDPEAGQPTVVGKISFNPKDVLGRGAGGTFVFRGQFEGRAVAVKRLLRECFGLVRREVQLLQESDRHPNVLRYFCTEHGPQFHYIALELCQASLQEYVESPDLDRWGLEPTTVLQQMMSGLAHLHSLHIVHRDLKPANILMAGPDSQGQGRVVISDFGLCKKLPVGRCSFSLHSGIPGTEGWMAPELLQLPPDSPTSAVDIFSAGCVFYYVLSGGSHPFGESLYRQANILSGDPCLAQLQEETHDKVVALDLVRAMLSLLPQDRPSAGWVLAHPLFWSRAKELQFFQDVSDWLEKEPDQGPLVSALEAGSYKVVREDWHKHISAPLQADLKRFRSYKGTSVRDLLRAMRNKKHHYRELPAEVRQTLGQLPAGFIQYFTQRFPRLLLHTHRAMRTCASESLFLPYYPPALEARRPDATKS
Put plainly: affinity purification with mass spectrometry; RIPA lysates of MCMV-infected (mock-infected as control) NIH-3T3 cells stably expressing IRE1-TEV-HA loaded on an anti-HA 3F10 affinity matrix; eluted by TEV protease; SDS-PAGE, silver stain; bands absent from the control lane analysed by mass spectrometry; MOI 5 in the legend, MOI 1 and 48 h in the methods.

These are yes or no findings as the source states them, for the method shown. In cells and extracts the contact can be indirect. These calls come from enrichment with a bait or labelling near it, and not all partners need be listed. Tags and fused reporters may be left off the sequences shown.

For the substance “M50 of MCMV, expressed from the virus (murine cytomegalovirus (MCMV))”, the binding result is “binds”.

The values are drawn from publication PMC3738497.
